Part of at least one peptide drawing is inferred or uncertain, most often the ends. Non-standard residues stand in square brackets, D forms with d. Residues, ends and D or L forms follow the SMILES beside them. Ala(4-thiazolyl) = N[C@@H](Cc1cscn1)C(=O)O; Phe(4-Cl) = N[C@@H](Cc1ccc(Cl)cc1)C(=O)O; Phe(4-F) = N[C@@H](Cc1ccc(F)cc1)C(=O)O; NMeF = CN[C@@H](Cc1ccccc1)C(=O)O; hSer = N[C@@H](CCO)C(=O)O; NMeA = CN[C@@H](C)C(=O)O; dNMeA = CN[C@H](C)C(=O)O; Sar = CNCC(=O)O
Test system: MOLM-13 cells
Test: Cellular fluorescence assay (resazurin, 72 hours)
Type: cell-based
Method: MOLM-13 cells were grown in suspension in T75 flasks in RPMI medium with 10% fetal bovine serum (FBS) at 37° C. with 5% CO2. 40 μL of MOLM-13 cells were plated into columns 1-22 of black, clear bottom, 384 well plates at a density of 1,500 cells per well in PRMI with 10% FBS. Columns 23 and 24 were filled with 40 μL of media as a positive control. 100 nL of compounds dissolved in DMSO were pin transferred into columns 3-22 of the 384 well plate. Columns 1 and 2 served as negative control wells. Plates were incubated for 72 hours at 37° C. with 5% CO2. After incubation, the cells were given 10 μL of 2 mM Resazurin in RPMI with 10% FBS and incubated for 3 hours. The fluorescence intensity was read on a Molecular Devices SpectraMax i3x plate reader (Excitation wavelength=535 nm, Emission wavelength=585 nm).

With `COCC[C@@H]1NC(=O)[C@H]2CCCN2C(=O)[C@H](Cc2ccccc2)N(C)C(=O)[C@H](Cc2ccc(Cl)cc2)NC(=O)CN(C)C(=O)[C@H](Cc2ccc(F)cc2)NC(=O)[C@H](C)N(C)C(=O)[C@@H](C)N(C)C(=O)[C@H](Cc2cscn2)NC(=O)[C@H](C)N(C)C1=O` [Compound 33, COCC[C@@H]1NC(=O)[C@H]2CCCN2C(=O)[C@H](CC2=CC=CC=C2)N(C)C(=O)[C@H](CC2=CC=C(Cl)C=C2)NC(=O)CN(C)C(=O)[C@H](CC2=CC=C(F)C=C2)NC(=O)[C@H](C)N(C)C(=O)[C@@H](C)N(C)C(=O)[C@H](CC2=CSC=N2)NC(=O)[C@H](C)N(C)C1=O] (cyclo([Ala(4-thiazolyl)][dNMeA][NMeA][Phe(4-F)][Sar][Phe(4-Cl)][NMeF][dP][hSer](Me)[NMeA])) the IC50 was > 150 nM.

Source: patent publication US20220411471A1, “CELL-PERMEABLE CYCLIC PEPTIDES AND USES THEREOF” (Unnatural Products Inc., priority 2019, published 2022)
